Results deposited as PubChem BioAssay AID504791 (Drosophila RNAi Screening Center, 2011).

Screen: 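Genes whose knock-down strengthens or weakens small-RNA reporter silencing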 (primary screen)
Cells: Drosophila S2-derived reporter cells
Knock-down reagent: long dsRNA against Drosophila genes, about 150-250 ng dsRNA per well (siRNA assay); about 80-120 ng (miRNA assay)
Time to read-out: about 5 days (siRNA assay); about 4 days (miRNA assay)
Treatment: copper sulfate induction of reporters: 25 µM (siRNA assay); 200 mM stated (miRNA assay), 1-2 days before reading
Detection: 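Dual luciferase assay: Renilla to firefly signal ratio in each well, scaled to the mean ratio of its plate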
Units: stable assay Renilla, run 1 in luminescence; stable assay firefly, run 1 in luminescence
Rule for the call: 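a well was a first-pass pick when its plate-scaled ratio rose above 1.5 (siRNA assay) or 1.6 (miRNA assay), or dropped below 0.6; a gene counted only if two separate dsRNAs agreed on retest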
The deposit covers about 23,000 reagents; shown is an unselected part of those with a known target gene and a result. Over the whole deposit, 199 (0.86%) got an active call. 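Plate-scaled ratios behind the calls are not deposited; printed light signals are raw; many rows marked increased or decreased are still called inactive.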 Unmarked entries are inactive. Not stated in the record: the direction of the score.

CG42552 (retired record) [DRSC11512] gave stable assay Renilla, run 1 = 6728; stable assay firefly, run 1 = 4.19e5.
With knock-down of Ras64B [DRSC08689] the results were stable assay Renilla, run 1 = 6086; stable assay firefly, run 1 = 3.65e5.
With knock-down of Qsox1 [DRSC06878], the screen gave stable assay Renilla, run 1 = 4963; stable assay firefly, run 1 = 5.51e5.
With knock-down of Balat [DRSC06852] the results were stable assay Renilla, run 1 = 7396; stable assay firefly, run 1 = 3.25e5.
Silencing of Brca2 [DRSC04219] came out at: stable assay Renilla, run 1 = 6415; stable assay firefly, run 1 = 3.51e5.
Brca2 [DRSC04220] showed stable assay Renilla, run 1 = 5439; stable assay firefly, run 1 = 3.48e5.
Depletion of GLaz [DRSC07431] came out at: stable assay Renilla, run 1 = 6568; stable assay firefly, run 1 = 4.15e5.
After knock-down of CG33172 [DRSC21793], the screen gave stable assay Renilla, run 1 = 7622; stable assay firefly, run 1 = 4.33e5.
Against Tim9a [DRSC19753], the entry reads stable assay Renilla, run 1 = 3691; stable assay firefly, run 1 = 2.87e5.
For CG43333 [DRSC01917], the entry reads stable assay Renilla, run 1 = 6766; stable assay firefly, run 1 = 3.87e5.
Depletion of CG43333 [DRSC23265] resulted in: stable assay Renilla, run 1 = 6798; stable assay firefly, run 1 = 5.36e5.
Silencing of Uch-L5R [DRSC19825] gave: stable assay Renilla, run 1 = 4135; stable assay firefly, run 1 = 3.07e5.

As entered above.
Under “stable assay Renilla, run 1”, CG43333 [DRSC01917] reads 6766
Value for Uch-L5R [DRSC19825] in “stable assay Renilla, run 1”: 4135
